Reference: the supplement of paper PMC10849652
Some of the results follow.

Protein sequences, listed by entry. Tags and fused reporters are not part of them. Lines headed by an entry give the natural chain unless they say otherwise; changes in a name come on top.
UniProt Q9ULK4: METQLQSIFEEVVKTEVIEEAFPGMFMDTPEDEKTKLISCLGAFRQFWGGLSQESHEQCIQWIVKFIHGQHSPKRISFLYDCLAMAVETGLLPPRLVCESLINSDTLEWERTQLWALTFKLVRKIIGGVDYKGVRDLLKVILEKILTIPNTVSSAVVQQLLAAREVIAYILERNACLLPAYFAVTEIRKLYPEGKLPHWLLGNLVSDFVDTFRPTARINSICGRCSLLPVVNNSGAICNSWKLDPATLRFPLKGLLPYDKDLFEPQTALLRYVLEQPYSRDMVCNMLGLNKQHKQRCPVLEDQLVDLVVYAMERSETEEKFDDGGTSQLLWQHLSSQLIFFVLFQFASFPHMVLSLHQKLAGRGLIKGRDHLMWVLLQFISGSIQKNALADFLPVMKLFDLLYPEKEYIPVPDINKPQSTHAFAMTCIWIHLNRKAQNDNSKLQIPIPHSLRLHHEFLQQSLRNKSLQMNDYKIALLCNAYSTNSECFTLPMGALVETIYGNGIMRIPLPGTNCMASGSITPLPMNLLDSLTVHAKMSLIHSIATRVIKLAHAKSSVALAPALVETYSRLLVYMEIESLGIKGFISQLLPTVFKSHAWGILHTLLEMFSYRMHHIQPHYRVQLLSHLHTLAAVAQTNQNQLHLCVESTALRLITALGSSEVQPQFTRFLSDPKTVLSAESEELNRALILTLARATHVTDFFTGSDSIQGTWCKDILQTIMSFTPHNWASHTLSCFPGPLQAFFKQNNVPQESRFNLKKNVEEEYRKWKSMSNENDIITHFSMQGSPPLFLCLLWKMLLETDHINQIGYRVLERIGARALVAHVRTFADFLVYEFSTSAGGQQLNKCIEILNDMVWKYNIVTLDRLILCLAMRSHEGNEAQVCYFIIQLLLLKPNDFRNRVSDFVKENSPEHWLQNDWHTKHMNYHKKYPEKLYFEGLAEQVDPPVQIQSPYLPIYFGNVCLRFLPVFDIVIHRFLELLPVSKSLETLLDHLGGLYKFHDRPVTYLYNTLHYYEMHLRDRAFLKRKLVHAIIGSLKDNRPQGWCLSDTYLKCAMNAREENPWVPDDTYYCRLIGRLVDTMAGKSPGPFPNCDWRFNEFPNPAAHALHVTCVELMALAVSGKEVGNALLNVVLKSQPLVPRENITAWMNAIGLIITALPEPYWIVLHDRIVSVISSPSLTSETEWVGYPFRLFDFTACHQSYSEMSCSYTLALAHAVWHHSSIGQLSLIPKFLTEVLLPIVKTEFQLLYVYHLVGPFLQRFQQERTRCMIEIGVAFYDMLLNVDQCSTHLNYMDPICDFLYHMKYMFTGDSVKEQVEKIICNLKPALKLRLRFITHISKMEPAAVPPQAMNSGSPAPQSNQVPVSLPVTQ
UniProt Q06413, whole entry, looked up: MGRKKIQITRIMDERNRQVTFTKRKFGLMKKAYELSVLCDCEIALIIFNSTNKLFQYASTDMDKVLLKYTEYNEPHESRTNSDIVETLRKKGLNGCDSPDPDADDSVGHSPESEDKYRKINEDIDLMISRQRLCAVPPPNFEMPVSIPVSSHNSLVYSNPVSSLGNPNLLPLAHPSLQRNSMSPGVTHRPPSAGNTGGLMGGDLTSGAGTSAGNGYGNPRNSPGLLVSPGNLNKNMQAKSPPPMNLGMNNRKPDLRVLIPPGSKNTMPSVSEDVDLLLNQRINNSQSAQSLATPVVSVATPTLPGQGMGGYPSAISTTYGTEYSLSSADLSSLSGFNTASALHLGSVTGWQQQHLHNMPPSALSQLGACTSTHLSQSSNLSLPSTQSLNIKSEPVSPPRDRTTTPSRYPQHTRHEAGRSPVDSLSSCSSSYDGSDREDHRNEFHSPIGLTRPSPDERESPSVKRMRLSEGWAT
UniProt Q96G25: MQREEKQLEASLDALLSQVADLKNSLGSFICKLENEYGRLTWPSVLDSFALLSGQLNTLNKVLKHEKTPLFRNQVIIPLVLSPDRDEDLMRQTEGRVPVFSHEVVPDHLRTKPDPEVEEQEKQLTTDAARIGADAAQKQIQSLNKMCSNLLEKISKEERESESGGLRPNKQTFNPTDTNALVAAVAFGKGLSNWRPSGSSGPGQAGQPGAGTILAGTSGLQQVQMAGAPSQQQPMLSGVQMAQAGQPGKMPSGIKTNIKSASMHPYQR
UniProt Q5SR56: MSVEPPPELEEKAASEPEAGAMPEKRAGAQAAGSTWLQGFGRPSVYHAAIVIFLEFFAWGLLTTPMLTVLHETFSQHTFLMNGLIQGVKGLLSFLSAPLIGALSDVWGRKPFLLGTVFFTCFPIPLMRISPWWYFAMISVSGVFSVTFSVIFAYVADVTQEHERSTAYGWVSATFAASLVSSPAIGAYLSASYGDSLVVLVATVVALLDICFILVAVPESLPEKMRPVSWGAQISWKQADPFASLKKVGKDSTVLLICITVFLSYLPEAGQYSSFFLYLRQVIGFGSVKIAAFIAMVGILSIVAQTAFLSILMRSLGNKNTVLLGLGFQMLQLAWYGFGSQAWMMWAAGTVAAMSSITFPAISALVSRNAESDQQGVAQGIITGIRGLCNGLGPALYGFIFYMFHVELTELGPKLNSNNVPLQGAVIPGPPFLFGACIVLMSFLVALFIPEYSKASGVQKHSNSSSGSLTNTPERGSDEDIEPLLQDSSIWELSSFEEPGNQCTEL
UniProt Q6ZSS7: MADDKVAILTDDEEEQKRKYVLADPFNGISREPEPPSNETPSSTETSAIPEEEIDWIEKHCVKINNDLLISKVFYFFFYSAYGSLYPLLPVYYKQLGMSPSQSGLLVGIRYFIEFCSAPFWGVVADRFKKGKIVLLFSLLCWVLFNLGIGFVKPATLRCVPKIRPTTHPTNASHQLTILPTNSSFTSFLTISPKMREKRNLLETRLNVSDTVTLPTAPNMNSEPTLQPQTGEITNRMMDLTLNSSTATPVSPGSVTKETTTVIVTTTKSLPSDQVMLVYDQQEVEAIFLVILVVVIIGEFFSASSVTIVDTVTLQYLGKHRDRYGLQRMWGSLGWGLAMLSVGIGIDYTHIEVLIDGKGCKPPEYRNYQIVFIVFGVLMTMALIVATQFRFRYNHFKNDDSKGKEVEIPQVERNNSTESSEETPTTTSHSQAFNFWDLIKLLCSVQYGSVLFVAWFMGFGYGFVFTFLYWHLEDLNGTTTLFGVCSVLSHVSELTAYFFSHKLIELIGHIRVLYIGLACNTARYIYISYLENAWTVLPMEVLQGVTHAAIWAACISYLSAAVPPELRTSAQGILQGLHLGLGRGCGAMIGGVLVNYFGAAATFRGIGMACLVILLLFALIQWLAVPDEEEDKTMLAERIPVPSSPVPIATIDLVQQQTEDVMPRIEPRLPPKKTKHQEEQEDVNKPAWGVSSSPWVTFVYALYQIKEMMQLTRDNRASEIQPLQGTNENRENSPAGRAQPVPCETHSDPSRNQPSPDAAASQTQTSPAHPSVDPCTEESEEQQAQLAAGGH
UniProt O95402: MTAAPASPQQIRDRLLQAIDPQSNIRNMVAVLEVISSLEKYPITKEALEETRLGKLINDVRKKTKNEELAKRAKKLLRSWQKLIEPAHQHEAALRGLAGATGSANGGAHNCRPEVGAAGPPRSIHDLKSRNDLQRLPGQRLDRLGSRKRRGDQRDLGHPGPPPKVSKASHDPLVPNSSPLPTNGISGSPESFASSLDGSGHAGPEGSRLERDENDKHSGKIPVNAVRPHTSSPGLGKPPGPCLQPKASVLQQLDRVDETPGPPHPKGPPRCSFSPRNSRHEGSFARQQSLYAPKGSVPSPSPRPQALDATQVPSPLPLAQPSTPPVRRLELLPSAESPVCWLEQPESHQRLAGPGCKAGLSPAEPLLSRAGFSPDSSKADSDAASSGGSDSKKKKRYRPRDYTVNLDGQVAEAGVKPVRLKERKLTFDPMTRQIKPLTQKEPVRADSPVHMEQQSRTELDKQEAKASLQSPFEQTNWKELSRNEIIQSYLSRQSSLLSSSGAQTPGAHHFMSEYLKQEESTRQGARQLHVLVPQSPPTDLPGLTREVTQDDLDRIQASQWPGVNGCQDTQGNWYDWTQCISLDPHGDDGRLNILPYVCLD
UniProt Q9NZL9, whole entry, looked up: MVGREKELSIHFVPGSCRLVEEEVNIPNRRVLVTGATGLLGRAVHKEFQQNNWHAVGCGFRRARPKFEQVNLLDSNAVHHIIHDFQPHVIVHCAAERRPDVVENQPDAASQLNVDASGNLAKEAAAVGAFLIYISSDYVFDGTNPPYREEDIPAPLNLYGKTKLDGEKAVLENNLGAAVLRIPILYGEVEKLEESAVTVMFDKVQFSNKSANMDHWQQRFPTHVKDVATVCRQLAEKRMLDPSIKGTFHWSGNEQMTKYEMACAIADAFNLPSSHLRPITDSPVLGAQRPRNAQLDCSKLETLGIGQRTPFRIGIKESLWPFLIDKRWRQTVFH
UniProt Q8N6Q8: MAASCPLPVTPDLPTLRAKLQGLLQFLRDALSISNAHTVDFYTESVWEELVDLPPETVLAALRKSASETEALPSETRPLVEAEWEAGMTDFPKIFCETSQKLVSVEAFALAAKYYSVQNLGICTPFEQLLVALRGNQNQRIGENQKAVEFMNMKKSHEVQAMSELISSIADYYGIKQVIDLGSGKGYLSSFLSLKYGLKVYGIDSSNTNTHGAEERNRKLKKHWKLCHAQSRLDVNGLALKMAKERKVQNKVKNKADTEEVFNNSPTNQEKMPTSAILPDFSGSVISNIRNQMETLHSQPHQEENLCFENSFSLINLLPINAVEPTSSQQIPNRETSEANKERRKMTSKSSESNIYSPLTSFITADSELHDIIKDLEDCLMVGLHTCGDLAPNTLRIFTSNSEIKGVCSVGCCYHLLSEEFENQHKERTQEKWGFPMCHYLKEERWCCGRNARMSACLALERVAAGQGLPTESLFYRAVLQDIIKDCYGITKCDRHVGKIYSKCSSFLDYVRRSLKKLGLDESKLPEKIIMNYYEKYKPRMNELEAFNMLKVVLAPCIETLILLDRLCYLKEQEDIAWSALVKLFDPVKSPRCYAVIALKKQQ
UniProt Q02078: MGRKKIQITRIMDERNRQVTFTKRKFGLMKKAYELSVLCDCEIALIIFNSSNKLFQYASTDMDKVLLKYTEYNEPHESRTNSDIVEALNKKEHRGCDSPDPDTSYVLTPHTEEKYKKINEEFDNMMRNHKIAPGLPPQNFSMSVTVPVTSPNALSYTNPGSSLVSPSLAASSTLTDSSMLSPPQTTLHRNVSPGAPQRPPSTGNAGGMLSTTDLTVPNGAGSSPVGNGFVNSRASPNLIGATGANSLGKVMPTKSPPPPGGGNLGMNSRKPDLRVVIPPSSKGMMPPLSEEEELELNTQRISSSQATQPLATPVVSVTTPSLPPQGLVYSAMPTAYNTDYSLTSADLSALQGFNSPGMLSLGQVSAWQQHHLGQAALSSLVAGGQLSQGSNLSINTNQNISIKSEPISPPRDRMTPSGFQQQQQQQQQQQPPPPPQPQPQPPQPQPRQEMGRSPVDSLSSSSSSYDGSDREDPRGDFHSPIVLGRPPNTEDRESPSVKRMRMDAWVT
UniProt Q6UX53: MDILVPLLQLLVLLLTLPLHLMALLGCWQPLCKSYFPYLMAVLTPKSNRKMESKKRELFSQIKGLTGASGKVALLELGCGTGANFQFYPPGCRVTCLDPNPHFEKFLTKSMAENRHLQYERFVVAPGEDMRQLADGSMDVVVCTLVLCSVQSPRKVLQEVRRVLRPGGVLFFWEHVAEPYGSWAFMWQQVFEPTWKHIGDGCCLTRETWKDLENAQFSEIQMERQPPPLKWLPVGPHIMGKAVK
UniProt Q7L590: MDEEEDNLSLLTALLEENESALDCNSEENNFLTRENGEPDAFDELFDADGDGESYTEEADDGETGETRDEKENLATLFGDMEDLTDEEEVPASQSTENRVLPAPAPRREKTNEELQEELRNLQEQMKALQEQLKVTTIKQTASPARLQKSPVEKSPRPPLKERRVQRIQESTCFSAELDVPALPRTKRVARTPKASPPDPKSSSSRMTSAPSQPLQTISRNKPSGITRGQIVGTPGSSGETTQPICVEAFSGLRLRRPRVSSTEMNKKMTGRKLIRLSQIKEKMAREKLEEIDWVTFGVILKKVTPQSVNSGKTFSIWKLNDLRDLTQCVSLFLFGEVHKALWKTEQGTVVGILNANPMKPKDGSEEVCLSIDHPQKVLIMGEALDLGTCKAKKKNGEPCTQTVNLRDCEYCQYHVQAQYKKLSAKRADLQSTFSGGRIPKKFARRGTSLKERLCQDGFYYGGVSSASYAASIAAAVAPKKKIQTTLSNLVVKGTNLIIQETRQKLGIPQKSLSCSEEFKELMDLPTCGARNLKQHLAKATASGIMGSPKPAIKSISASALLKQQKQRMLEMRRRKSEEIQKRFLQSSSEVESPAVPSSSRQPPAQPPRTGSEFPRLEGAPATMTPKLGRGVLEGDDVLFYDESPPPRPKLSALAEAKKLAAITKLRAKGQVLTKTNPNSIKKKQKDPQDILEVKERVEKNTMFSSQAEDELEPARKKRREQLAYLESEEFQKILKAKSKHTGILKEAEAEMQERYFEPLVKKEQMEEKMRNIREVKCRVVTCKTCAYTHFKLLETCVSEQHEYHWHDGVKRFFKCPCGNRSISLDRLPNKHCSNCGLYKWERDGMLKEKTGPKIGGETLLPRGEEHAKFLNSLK

What was measured:
Experiment in all cases: log2 fold change, soluble protein after heating vs DMSO (PISA); higher = thermal stabilisation; K562 cells, 10 uM, 30 min; active = over 0.2 and 3.5 SD of the protein, either way, in both replicates (recomputed)
[1] = compound: NC(=O)Nc1cc(-c2cccc(F)c2)sc1C(=O)N[C@H]1CCCNC1
In short: (§1)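 Values are thermal stability changes relative to control samples and are taken from duplicates. They are stated as log2 fold changes. Before quantification by TMTpro 16plex LC-MS/MS with equalised channel sums, K562 cells at 2×10^6 cells/mL were treated with 10 μM compound for 30 min, heated in aliquots for 3 min across 48°C-58°C, pooled, extracted in PBS with 0.5% NP-40 at 4°C, and centrifuged at 21,000xg for 90 min to give the soluble supernatant.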

[2] = compound: NC(=O)c1cnc(N[C@@H]2CCCC[C@@H]2N)nc1Nc1cccc(-n2nccn2)c1
In short: as §1

[3] = compound: NC1(c2ccc(-c3nc4ccn5c(=O)[nH]nc5c4cc3-c3ccccc3)cc2)CCC1
In short: as §1

[4] = compound: NCC(=O)Nc1ccc(-n2nc(C(F)(F)F)cc2-c2ccc3c(ccc4ccccc43)c2)cc1
In short: as §1

entinostat = compound: Nc1ccccc1NC(=O)c1ccc(CNC(=O)OCc2cccnc2)cc1 [entinostat]
In short: as §1

vorinostat = compound: O=C(CCCCCCC(=O)Nc1ccccc1)NO [vorinostat]
In short: as §1

silmitasertib = compound: O=C(O)c1ccc2c(c1)nc(Nc1cccc(Cl)c1)c1ccncc12 [silmitasertib]
In short: as §1

[5] = compound: O=C1NC(=O)C(c2cnc3ccccn23)=C1c1cn2c3c(cc(F)cc13)CN(C(=O)N1CCCCC1)CC2
In short: as §1

citarinostat = compound: O=C(CCCCCCNC(=O)c1cnc(N(c2ccccc2)c2ccccc2Cl)nc1)NO [citarinostat]
In short: as §1

[6] = compound: c1cc(OCCN2CCCCC2)cc(-c2n[nH]c3ccc(-c4nnc[nH]4)cc23)c1
In short: as §1

Measured: log2 fold change

MBD2 (UniProt Q9UBB5)
inactive: [1] -0.048 | [2] 0.058 | [3] -0.117 | [4] 0.062 | entinostat -0.055 | vorinostat -0.068 | silmitasertib 0.081 | [5] 0.058

METTL6 (UniProt Q8TCB7)
inactive: [1] -0.249 | [2] 0.039 | [3] -0.337 | entinostat -0.047 | vorinostat -0.029 | silmitasertib 0.099 | [5] 0.144

METAP2 (UniProt P50579)
inactive: [1] -0.157 | [2] 0.01 | [3] 0.075 | [4] 0.027 | entinostat -0.081 | vorinostat 0.071 | citarinostat -0.012 | silmitasertib -0.027 | [5] -0.004 | [6] -0.018

MED23 (UniProt Q9ULK4)
inactive: [1] 0.033 | [2] -0.006 | [3] -0.066 | [4] 0.024 | entinostat 0.089 | vorinostat 0.069 | citarinostat 0.041 | silmitasertib 0.021 | [5] 0.03 | [6] -0.14

MED30 (UniProt Q96HR3)
inactive: [1] -0.131 | [2] 0.021 | [3] 0.039 | [4] -0.032 | entinostat -0.065 | citarinostat -0.049 | silmitasertib 0.007 | [5] -0.048 | [6] -0.073

METTL2B (UniProt Q6P1Q9)
inactive: [1] 0.065 | [2] 0.094 | [3] -0.202 | [4] -0.04 | entinostat 0.093 | vorinostat 0.056 | silmitasertib 0.201 | [5] 0.096

MEF2C isoform 5 (UniProt Q06413)
inactive: [1] -0.03 | [2] 0 | [3] 0.013 | [4] -0.005 | entinostat -0.042 | vorinostat -0.009 | citarinostat 0.033 | silmitasertib 0.009 | [5] -0.108 | [6] -0.019

Three records drawn at random from the list so far, as already listed:
MED23 (UniProt Q9ULK4)
inactive: [1] 0.033 | [2] -0.006 | [3] -0.066 | [4] 0.024 | entinostat 0.089 | vorinostat 0.069 | citarinostat 0.041 | silmitasertib 0.021 | [5] 0.03 | [6] -0.14

MED30 (UniProt Q96HR3)
inactive: [1] -0.131 | [2] 0.021 | [3] 0.039 | [4] -0.032 | entinostat -0.065 | citarinostat -0.049 | silmitasertib 0.007 | [5] -0.048 | [6] -0.073

METTL2B (UniProt Q6P1Q9)
inactive: [1] 0.065 | [2] 0.094 | [3] -0.202 | [4] -0.04 | entinostat 0.093 | vorinostat 0.056 | silmitasertib 0.201 | [5] 0.096

Remaining list, next part.

MFF (UniProt Q9GZY8)
inactive: [1] -0.098 | [3] -0.125 | [4] -0.102 | entinostat -0.015 | vorinostat 0.006 | citarinostat -0.007 | silmitasertib 0.04 | [5] -0.06 | [6] -0.135
active: [2] -0.224

MED22 (UniProt Q15528)
inactive: [1] 0.042 | [2] 0.029 | [3] 0.064 | [4] 0.023 | entinostat 0.049 | citarinostat -0.243 | silmitasertib -0.01 | [5] -0.074
active: [6] 0.322

MED8 isoform 2 (UniProt Q96G25)
inactive: [1] 0.048 | [2] 0.2 | [3] 0.038 | [4] 0.303 | entinostat -0.107 | citarinostat 0.035 | silmitasertib 0.079 | [5] -0.043 | [6] -0.092

MFSD14B (UniProt Q5SR56)
inactive: [1] -0.038 | [2] -0.057 | [3] 0.145 | [4] 0.162 | entinostat 0.098 | citarinostat -0.04 | silmitasertib -0.02 | [5] 0.097 | [6] -0.096

MDK (UniProt P21741)
inactive: [1] -0.279 | [2] 0.079 | [3] 0.415 | entinostat -0.148 | vorinostat 0.107 | silmitasertib 0.13

MED17 (UniProt Q9NVC6)
active: [2] -0.33
inactive: [1] 0.068 | [3] 0.049 | [4] -0.034 | entinostat -0.128 | vorinostat 0.045 | citarinostat 0.014 | silmitasertib 0.074 | [5] 0.112 | [6] 0.126

MDC1 (UniProt Q14676)
inactive: [1] 0.115 | [2] -0.075 | [3] -0.054 | [4] 0.153 | entinostat 0.001 | vorinostat -0.164 | citarinostat 0.062 | silmitasertib -0.116 | [5] -0.026 | [6] -0.086

MFSD6 (UniProt Q6ZSS7)
inactive: [1] -0.021 | [2] 0.023 | [3] 0.103 | [4] 0.069 | entinostat 0.143 | vorinostat 0.06 | silmitasertib 0.08 | [5] 0.022

MED26 (UniProt O95402)
inactive: [1] 0.141 | [2] 0.285 | [4] 0 | entinostat -0.132 | vorinostat 0.076

MASTL (UniProt Q96GX5)
inactive: [1] 0.123 | [2] -0.018 | [3] 0.144 | [4] -0.004 | entinostat 0.053 | citarinostat -0.018 | silmitasertib 0.123 | [5] 0.039 | [6] 0.002

MAT2B (UniProt Q9NZL9)
inactive: [1] -0.038 | [2] -0.058 | [3] 0 | [4] -0.036 | entinostat -0.036 | vorinostat -0.002 | citarinostat -0.012 | silmitasertib 0.006 | [5] -0.058 | [6] 0.002

MFSD11 (UniProt O43934)
inactive: [1] 0.035 | [2] 0.038 | [3] -0.202 | [4] 0.002 | entinostat -0.112 | vorinostat -0.028 | citarinostat -0.096 | silmitasertib 0.044 | [5] -0.04 | [6] 0.063

METTL25 (UniProt Q8N6Q8)
inactive: [1] -0.112 | [2] 0.14 | [3] -0.121 | [4] -0.157 | entinostat -0.138 | vorinostat -0.03 | silmitasertib 0.077 | [5] -0.207

MCM3 isoform 2 (UniProt P25205)
inactive: [1] -0.021 | [2] 0.009 | [3] -0.049 | [4] 0.01 | entinostat 0.001 | vorinostat 0.026 | citarinostat 0 | silmitasertib -0.03 | [5] -0.009 | [6] -0.028

MFSD4B (UniProt Q5TF39)
inactive: [1] 0.167 | [2] 0.116 | [3] 0.145 | [4] 0.097 | entinostat -0.106 | vorinostat 0.033 | citarinostat 0.016 | silmitasertib -0.099 | [5] -0.126 | [6] -0.045

MED28 (UniProt Q9H204)
inactive: [1] -0.041 | [2] -0.021 | [3] -0.027 | entinostat -0.019 | vorinostat -0.086 | citarinostat -0.029 | silmitasertib 0.014 | [6] 0.019

METAP1D (UniProt Q6UB28)
inactive: [1] 0.061 | [2] 0.252 | [3] -0.033 | [4] 0.073 | entinostat -0.071 | citarinostat 0.098 | silmitasertib 0.064 | [5] -0.099 | [6] -0.04

MIA2 (UniProt Q96PC5)
inactive: [1] 0.03 | [2] -0.03 | [3] 0.06 | [4] -0.032 | entinostat -0.009 | vorinostat 0.009 | citarinostat 0.059 | silmitasertib 0.083 | [5] -0.045 | [6] -0.058

METTL7A (UniProt Q9H8H3)
inactive: [1] -0.091 | [2] 0.014 | [3] 0.018 | [4] -0.019 | entinostat 0 | vorinostat -0.002 | citarinostat 0.027 | silmitasertib -0.028 | [5] 0.01 | [6] 0.02

MEF2A isoform 2 (UniProt Q02078)
inactive: [3] 0 | [4] 0.003 | vorinostat 0.084 | silmitasertib -0.067

METTL7B (UniProt Q6UX53)
inactive: [2] 0.18 | vorinostat -0.205 | [5] 0.096

MEF2A (UniProt Q02078)
inactive: [1] -0.2 | entinostat -0.215 | citarinostat 0.02 | [5] 0.036 | [6] -0.174

MCM10 (UniProt Q7L590)
inactive: [3] 0.002 | [4] -0.085 | entinostat 0.224 | vorinostat 0.021 | citarinostat 0.143 | silmitasertib -0.129 | [5] 0.134 | [6] 0.107
active: [1] 0.522

MED7 (UniProt O43513)
inactive: [1] 0.034 | [2] 0.122 | [4] -0.041 | entinostat -0.16 | [5] -0.085

MBLAC1 (UniProt A4D2B0)
inactive: [2] -0.031 | [3] -0.179 | [4] 0.242 | vorinostat -0.021 | citarinostat 0.01 | silmitasertib -0.082 | [6] -0.067
